The target of test [1] is T1, RGL1 with a deletion of 159 amino acids in its N-terminal (BD-RGL1) (Arabidopsis thaliana) (UniProt Q9C8Y3).
T1 sequence: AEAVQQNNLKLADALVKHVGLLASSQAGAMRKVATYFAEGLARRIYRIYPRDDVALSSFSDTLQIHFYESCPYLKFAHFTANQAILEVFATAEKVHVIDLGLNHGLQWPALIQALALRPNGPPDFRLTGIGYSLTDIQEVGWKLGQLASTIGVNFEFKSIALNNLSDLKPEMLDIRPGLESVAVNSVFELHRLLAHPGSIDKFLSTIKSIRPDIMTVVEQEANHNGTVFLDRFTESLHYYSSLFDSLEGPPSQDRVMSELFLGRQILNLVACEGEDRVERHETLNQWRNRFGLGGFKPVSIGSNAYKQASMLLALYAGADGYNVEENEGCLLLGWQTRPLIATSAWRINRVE
Put plainly: two-hybrid; pairwise test; truncated RGL1 in pGBKT7 (BD), full-length bHLH48 or bHLH60 in pGADT7 (AD); growth on synthetic dropout medium lacking Leu/Trp/His/Ade.

Test [2] concerns the target T2, RGL1-cYFP (Arabidopsis thaliana) (UniProt Q9C8Y3).
T2 sequence: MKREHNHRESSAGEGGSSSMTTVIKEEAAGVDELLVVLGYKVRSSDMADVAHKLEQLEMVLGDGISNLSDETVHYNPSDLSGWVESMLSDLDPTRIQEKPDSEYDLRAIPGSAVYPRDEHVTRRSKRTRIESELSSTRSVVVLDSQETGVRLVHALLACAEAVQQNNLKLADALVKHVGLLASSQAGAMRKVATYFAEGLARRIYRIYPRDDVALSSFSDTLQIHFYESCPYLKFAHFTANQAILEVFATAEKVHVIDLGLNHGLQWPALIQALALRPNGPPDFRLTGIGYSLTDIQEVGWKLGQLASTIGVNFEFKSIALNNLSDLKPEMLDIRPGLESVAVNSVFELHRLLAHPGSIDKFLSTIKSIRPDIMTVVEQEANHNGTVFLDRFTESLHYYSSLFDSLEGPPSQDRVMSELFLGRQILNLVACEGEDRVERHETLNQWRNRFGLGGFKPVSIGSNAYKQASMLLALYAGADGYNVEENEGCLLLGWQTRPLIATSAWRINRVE
Put plainly: split reporter; BiFC; nYFP and cYFP fusions co-expressed by Agrobacterium infiltration in N. benthamiana leaf epidermal cells; 24 °C, observed after 48 h.

The target in test [3] is T3, Flag-RGL1 (Arabidopsis thaliana) (UniProt Q9C8Y3).
T3 sequence: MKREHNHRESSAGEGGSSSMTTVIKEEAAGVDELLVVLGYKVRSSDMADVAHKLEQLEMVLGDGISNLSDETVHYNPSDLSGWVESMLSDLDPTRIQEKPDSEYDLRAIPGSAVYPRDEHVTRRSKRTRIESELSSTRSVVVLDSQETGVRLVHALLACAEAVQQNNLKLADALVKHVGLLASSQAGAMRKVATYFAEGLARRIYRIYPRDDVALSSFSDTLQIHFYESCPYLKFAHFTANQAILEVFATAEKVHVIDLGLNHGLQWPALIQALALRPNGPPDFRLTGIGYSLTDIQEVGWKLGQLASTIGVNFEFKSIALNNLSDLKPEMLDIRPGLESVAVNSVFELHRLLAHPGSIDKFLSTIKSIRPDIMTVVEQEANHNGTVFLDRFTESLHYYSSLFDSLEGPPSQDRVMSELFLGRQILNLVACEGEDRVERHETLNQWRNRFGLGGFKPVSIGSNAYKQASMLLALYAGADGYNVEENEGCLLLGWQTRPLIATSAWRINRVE
Put plainly: co-IP; Myc-bHLH48 and Flag-RGL1 transiently co-expressed in tobacco leaves, treated with MG132 and paclobutrazol; Flag antibody for precipitation, Myc antibody for detection.

Results are given in words; binding and its absence hold for the method and conditions named. For some assays here: In cells and extracts the contact can be indirect. Some entries that bind do so weakly or less than the wild type. Tags and fused reporters may be left off the sequences shown.

B1: AD-bHLH60 (full-length bHLH60 in pGADT7) (protein, UniProt Q3EAI1 1-426)
chain: MDLTGGFGARSGGVGPCREPIGLESLHLGDEFRQLVTTLPPENPGGSFTALLELPPTQAVELLHFTDSSSSQQAAVTGIGGEIPPPLHSFGGTLAFPSNSVLMERAARFSVIATEQQNGNISGETPTSSVPSNSSANLDRVKTEPAETDSSQRLISDSAIENQIPCPNQNNRNGKRKDFEKKGKSSTKKNKSSEENEKLPYVHVRARRGQATDSHSLAERARREKINARMKLLQELVPGCDKGTDFGGKIKIKVCFGVHLLMISGKKVAIFLWKVSCEDLIDCSFSPPRIQGTALVLDEIINHVQSLQRQVEMLSMRLAAVNPRIDFNLDTILASENGSLMDGSFNAAPMQLAWPQQAIETEQSFHHRQLQQPPTQQWPFDGLNQPVWGREEDQAHGNDNSNLMAVSENVMVASANLHPNQVKMEL
For the molecule B1, in test [1], the binding result is “binds”.

B2: bHLH60-nYFP (protein, UniProt Q3EAI1 1-426)
chain: MDLTGGFGARSGGVGPCREPIGLESLHLGDEFRQLVTTLPPENPGGSFTALLELPPTQAVELLHFTDSSSSQQAAVTGIGGEIPPPLHSFGGTLAFPSNSVLMERAARFSVIATEQQNGNISGETPTSSVPSNSSANLDRVKTEPAETDSSQRLISDSAIENQIPCPNQNNRNGKRKDFEKKGKSSTKKNKSSEENEKLPYVHVRARRGQATDSHSLAERARREKINARMKLLQELVPGCDKGTDFGGKIKIKVCFGVHLLMISGKKVAIFLWKVSCEDLIDCSFSPPRIQGTALVLDEIINHVQSLQRQVEMLSMRLAAVNPRIDFNLDTILASENGSLMDGSFNAAPMQLAWPQQAIETEQSFHHRQLQQPPTQQWPFDGLNQPVWGREEDQAHGNDNSNLMAVSENVMVASANLHPNQVKMEL
Regarding B2, the binding entry in test [2] is reported as “binds”.

B3: AD-bHLH48 (full-length bHLH48 in pGADT7) (protein, UniProt Q8VZ02 1-327)
chain: MDLTQGFRARSGVVGPVAGLESLNFSDEFRHLVTTMPPETTGGSFTALLEMPVTQAMELLHFPDSSSSQARTVTSGDISPTTLHPFGALTFPSNSLLLDRAARFSVIATEQNGNFSGETANSLPSNPGANLDRVKAEPAETDSMVENQNQSYSSGKRKEREKKVKSSTKKNKSSVESDKLPYVHVRARRGQATDNHSLAERARREKINARMKLLQELVPGCDKIQGTALVLDEIINHVQTLQRQVEMLSMRLAAVNPRIDFNLDSILASENGSLMDGSFNAESYHQLQQWPFDGYHQPEWGREEDHHQANFSMGSATLHPNQVKMEL
Regarding B3, the binding entry in test [1] is given as “binds”.

B4: Myc-bHLH48 (protein, UniProt Q8VZ02 1-327)
chain: MDLTQGFRARSGVVGPVAGLESLNFSDEFRHLVTTMPPETTGGSFTALLEMPVTQAMELLHFPDSSSSQARTVTSGDISPTTLHPFGALTFPSNSLLLDRAARFSVIATEQNGNFSGETANSLPSNPGANLDRVKAEPAETDSMVENQNQSYSSGKRKEREKKVKSSTKKNKSSVESDKLPYVHVRARRGQATDNHSLAERARREKINARMKLLQELVPGCDKIQGTALVLDEIINHVQTLQRQVEMLSMRLAAVNPRIDFNLDSILASENGSLMDGSFNAESYHQLQQWPFDGYHQPEWGREEDHHQANFSMGSATLHPNQVKMEL
Take B4: the binding entry in test [3] is on record as “binds”.

B5: bHLH48-nYFP (protein, UniProt Q8VZ02 1-327)
chain: MDLTQGFRARSGVVGPVAGLESLNFSDEFRHLVTTMPPETTGGSFTALLEMPVTQAMELLHFPDSSSSQARTVTSGDISPTTLHPFGALTFPSNSLLLDRAARFSVIATEQNGNFSGETANSLPSNPGANLDRVKAEPAETDSMVENQNQSYSSGKRKEREKKVKSSTKKNKSSVESDKLPYVHVRARRGQATDNHSLAERARREKINARMKLLQELVPGCDKIQGTALVLDEIINHVQTLQRQVEMLSMRLAAVNPRIDFNLDSILASENGSLMDGSFNAESYHQLQQWPFDGYHQPEWGREEDHHQANFSMGSATLHPNQVKMEL
As for B5, in test [2], the binding result is “binds”.

Values taken from paper PMC5853475.
